No constants are given. Whether binding was seen depends on the method and setting. For some assays here: In cells and extracts the contact can be indirect. Some entries that bind do so weakly or less than the wild type.
Key:
[1] = target: MBP-N-WASP, full-length N-WASP fused to the maltose-binding protein (UniProt O00401); experiment: pull-down; both purified
[2] = target: NpeA(90-170)-6×His, recombinant soluble fragment of NpeA (amino acids 90–170, contains the SLiM) fus (Brucella abortus) (UniProt Q2YJ33); experiment: pull-down; only the target purified

Amino acid sequences for entries named in this document (tags omitted).
UniProt O00401: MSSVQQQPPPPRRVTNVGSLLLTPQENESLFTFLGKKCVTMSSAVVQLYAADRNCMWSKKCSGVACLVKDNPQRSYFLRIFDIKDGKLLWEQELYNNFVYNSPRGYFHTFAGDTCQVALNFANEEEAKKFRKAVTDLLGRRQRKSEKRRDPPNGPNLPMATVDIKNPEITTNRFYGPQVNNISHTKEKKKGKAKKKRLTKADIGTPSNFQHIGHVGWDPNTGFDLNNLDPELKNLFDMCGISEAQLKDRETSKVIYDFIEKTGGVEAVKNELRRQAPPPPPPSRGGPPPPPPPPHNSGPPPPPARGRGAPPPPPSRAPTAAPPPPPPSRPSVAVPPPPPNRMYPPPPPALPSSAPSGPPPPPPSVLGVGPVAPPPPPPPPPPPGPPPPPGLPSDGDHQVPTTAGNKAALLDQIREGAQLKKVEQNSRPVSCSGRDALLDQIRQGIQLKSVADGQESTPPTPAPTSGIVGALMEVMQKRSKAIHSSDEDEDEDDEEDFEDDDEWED

Substance	binding [1]	binding [2]
NpeA(90-170)-6×His, recombinant soluble fragment of NpeA (amino acids 90–170, contains the SLiM) fus (from UniProt Q2YJ33 90-170) (domain or fragment)	binds	
endogenous N-WASP from HeLa cell lysate (from UniProt O00401 1-505)		binds
